These are yes or no findings as the source states them, for the method shown. A result given as binding can be weak or reduced; the word gives no strength. For some of these results: Binding seen in cells or lysates may run through a third protein. For some of these results: Where a sequence is shown, tags or fusion partners need not be part of it.

These results are taken from publication PMC5571105.

Assay [1] concerns the target OsPHP1 (BiFC fusion) (rice). The experiment in a line: split reporter; BiFC in onion epidermal peel cells, nEYFP and cEYFP fusions under the 2XCaMV35S promoter co-transformed by particle bombardment; YFP seen by confocal microscopy 12 hours post transfection; repeated three times.
The target in assay [2] is OsPHP3 (BiFC fusion) (rice). The assay is described as above.
Another assay deals with cEYFP-OsPHP2 (rice). Described as above.
Assay [3] addresses OsPHP1 (rice). Nature of the assay: two-hybrid; β-galactosidase filter lift assay (LacZ reporter) of the co-transformed yeast colonies, X-gal as substrate, 30 °C in the dark.
Assay [4] concerns the target OsPHP2 (rice). The description is as above.
Assay [5] addresses OsPHP3 (rice). Described as above.
Assay [6] deals with OsRR4 (rice). The assay is described as above.
Assay [7] concerns the target OsPHP1 (rice). Nature of the assay: two-hybrid; S. cerevisiae AH109; bait in pGBD-C1 (GAL4 binding domain; written as target), prey in pGAD-C1 (GAL4 activation domain; written as binder); serial dilutions spotted on triple drop-out medium with 5 mM 3-AT (HIS3) and quadruple drop-out medium (ADE2), 30 °C; growth on quadruple drop-out shows strong interaction.
Assay [8] deals with OsPHP2 (rice). Described as above.
For assay [9], the target named is OsPHP3 (rice). The assay is described as above.
Assay [10] concerns the target OsRR4 (rice). Described as above.
Assay [11] concerns the target OsRR12 (rice). The experiment in a line: two-hybrid; β-galactosidase filter lift assay (LacZ reporter) of the co-transformed yeast colonies, X-gal as substrate, 30 °C in the dark.
Assay [12] concerns the target OsRR12 (rice). Nature of the assay: two-hybrid; S. cerevisiae AH109; bait in pGBD-C1 (GAL4 binding domain; written as target), prey in pGAD-C1 (GAL4 activation domain; written as binder); serial dilutions spotted on triple drop-out medium with 5 mM 3-AT (HIS3) and quadruple drop-out medium (ADE2), 30 °C; growth on quadruple drop-out shows strong interaction.
The target of assay [13] is OsRR5 (rice). Nature of the assay: two-hybrid; β-galactosidase filter lift assay (LacZ reporter) of the co-transformed yeast colonies, X-gal as substrate, 30 °C in the dark.
For assay [14], the target named is OsRR5 (rice). The experiment in a line: two-hybrid; S. cerevisiae AH109; bait in pGBD-C1 (GAL4 binding domain; written as target), prey in pGAD-C1 (GAL4 activation domain; written as binder); serial dilutions spotted on triple drop-out medium with 5 mM 3-AT (HIS3) and quadruple drop-out medium (ADE2), 30 °C; growth on quadruple drop-out shows strong interaction.

B1: OsRR22 (BiFC fusion) (protein, UniProt Q5SML5 1-696)
chain: MLLGALRMEERKGLMGRERDQFPVGMRVLAVDDDPVCLKVLETLLRRCQYHVTSTNQAITALKLLRENRDMFDLVISDVHMPDMDGFKLLELVGLEMDLPVIMLSVNGETKTVMKGITHGACDYLLKPVRIEELRNIWQHVVRRKFGNRERNNLDFSKECNKPQSADTDHGPYQPTCGSSDQNGRSSRKRKELHGEDDDEGDDNDYQENDEPSAAKKPRVVWSVELHRKFVAAVNQLGIDKAVPKRILELMNVEKLTRENVASHLQKYRLYLKRLGAVASQQASIVAAFGGRDPSFLHIGAFEGLQSYQPFAPSAALPSFNPHGLLTRTSAAAAFGLQELAAPSSTIQTSTGNVTVGHCLEENQQANLAQGLTAAIGQPQLQQNWIHQEGNGLSDVFSGSSLTNTLSSTLQRVPSSSLPPQELLECKQAKVSMPPSIRIPPSSSALLERTLGVSTNLGDSSISQQGALPIDGGFSADRLPLHSSFDGAVATKLDTSLAASQREIGQQGKFSVSMLVSPSDNLALAKNAKTGASSSGSTIILPLDTARHSDYLQFGGASNSLQKMDGQKQDHIQSSNIIWSSMPSTQLPSDTQIHNTQNQRLDSGSFNHNIGAHLADQTNASASILPQMKFDTRISEEKMKQKNTYDLGSSKLQGGFNSSGCNFDGLLNSIIKVEKDDLPFMDNELGCDLFPLGACI
As for B1, the binding result (in [1]; in [2]; in the assay with cEYFP-OsPHP2 (rice)) was “binds” throughout.

B2: OsRR26 (protein, UniProt Q5N6V8 1-582)
chain: MDATAFPYGLRVLVVDDDPTWLKILEKMLRKCSYEVTTCGLARVALDILRERKNKFDIVISDVNMPDMDGFKLLEHIGLEMDLPVIMMSIDGETSRVMKGVQHGACDYLLKPVRMKELRNIWQHVYRKKMHEVKEIEGNDSCDDLQILRNSFEGLDEKSLFMRSDSDTMRKRKDVDKDHADQESSDGNTVKKARVVWSVDLHQKFVNAVNQIGFDKVGPKKILDLMNVPGLTRENVASHLQKYRLYLSRLQKQNEERILGAARQDFSHKGTSENLNLRSSFQEQPSNIANGYPHASQNIQTQANMLDSQLEDTKSTVPLPVPDKKRTLASDAADSQNVTSASSLGGVLSFKSMPVNQDRKPSETMILECQAWTGGIPSKQFMQYPKHNHERCDLLGDYSCLPKPDLEHPVGPSNLYAPPPLISMSCGMEGDARDFSDVKPAIMDCIKSLSPALTCTVDSVSVQLSDSVVTSIDGDLKSSGVDGLPSIKDCCLDQTNSQGSLRPSQEPSIIGSTELASLPEDLPSYPLHGVSLENIGLSSIDLLNYSDAMILSGLQSNWYDDLEFSSEMMDYPSIDECLFASS
On to B2, for which the binding entry in the assay with OsPHP1 (rice) [3], in the assay with OsPHP2 (rice) [4], in the assay with OsPHP3 (rice) [5], with OsRR4 (rice) [6], with OsPHP1 (rice) [7] and with OsPHP2 (rice) [8] was “binds” each time. Further, the binding result with OsPHP3 (rice) [9] and with OsRR4 (rice) [10] was “binds” in each case.

B3: OsRR24 (protein, UniProt Q6H805 1-626)
chain: MTVEERQGRVGGHGVSGGGGGRDQFPVGMRVLAVDDDPTCLKILENLLLRCQYHVTTTGQAATALKLLRENKDQFDLVISDVHMPDMDGFKLLELVGLEMDLPVIMLSANGETQTVMKGITHGACDYLLKPVRLEQLRTIWQHVIRRKNCDAKNRGNDDDAGQKAQGMNNEGESIGANRNKRQSRKSRDENGDDGDDSDENSNENGDSSTQKKPRVVWSVELHRKFVAAVNQLGIEKAVPKKILDLMNVENITRENVASHLQKYRLYLKRLSTDASRQANLAAAFGGRNPAYINMNSFGNYNAYGRYRTVPTAGHTQANNILTRMNSPSAFGVHGLLHSQPIQLGHAQNNLSTSLNDLGGLNNGNMIRGAQMSTILTGPSGNSFPNISNGAPLATANRSLQPLESSNQQHLSRVHSSSADPFSTLVGESPQFPDLGRTTNTWQTAVPSNIQDRGHNDNMSQATLHMNGPKIEPVSSFTSSNQIPLLGNEMQGQVASLASNVPIAFNQDTSPFNYGSSTNSRDMLNNSHVFSNSSINTSLPNLSLDNPAVPRQTLDRGNTGIVSPMQDGRIHHQAVSNQLNYNDDLMRTTGLQRGLSGGLDDIVVDMFRPDREDDGVPYIDGDWELV
In the case of B3, the binding result in the assay with OsPHP2 (rice) [4] is “binds”; with OsPHP3 (rice) [5], “binds”; with OsRR12 (rice) [11], “binds”; in the assay with OsPHP2 (rice) [8], “binds”; with OsPHP3 (rice) [9] it was “binds weakly”; with OsRR12 (rice) [12], “binds”.

B4: nEYFP-OsRR23 (protein, UniProt Q6K8X6 1-688)
chain: MRAAEERKGVVPAARRRDQFPVGMRVLAVDDDPVCLKVLETLLLRCQYHVTTTNQAAIALKMLRENRDMFDLVISDVHMPDMDGFKLLELVGLEMDLPVIMLSVNGETKTVLKGITHGACDYLLKPVRIEELRNIWQHVIRRKFSTRDRANLDFYEECNKPPNADSDHVHGHVTCGSPDQSGRPSKKRKEYCSEEEDEGEVNTQDIDDPSAPKKPRVVWSVELHRKFVAAVNQLGIDKAVPKRILELMNVEKLTRENVASHLQKYRLYLKRLSAVASQQVSIVAALGGRDPFLHMGGFEGLQGYQAFTSSAALSSFTPHGLLNSPRNNPAALGTQGVPASKSIQTMSGSHTLSHSINDANKYHLSLPGNQKGNLGQGLATSLGQTQMQQKWIHEETDDLSTILSGNGLSNGMSGTLQSVTSSPLLPQELAECTQAKIVSQPSIRTSSVSSEHIEGAVGVSSGLLESRVSQQSTIPLSGFSANGLLIHGSFNNTCANKLGGTSSSCAPARSSNDLMVARDTKGGASSFGGAMLLPPDTEQKYLNFGGGNGLKQKFDDRTADSLFDLKFVWSSVPSSQLASNIGAHHAMSQRWNNSSSNSSNIGARMIGQATSSGSTVIPQMKTDFLVSGDMAMPKNASDLSIPKLQSELSSSSCSFDGLLNSIVKVEKDDVTFSDDLGCGDFYSLGACI
B4: the binding entry (in [1]; in [2]; in the assay with cEYFP-OsPHP2 (rice)) was “binds” in each case.

B5: OsRR21 (protein, UniProt Q8H7S7 1-691)
chain: MAPVEDGGGVEFPVGMKVLVVDDDPTCLAVLKRMLLECRYDATTCSQATRALTMLRENRRGFDVIISDVHMPDMDGFRLLELVGLEMDLPVIMMSADSRTDIVMKGIKHGACDYLIKPVRMEELKNIWQHVIRKKFNENKEHEHSGSLDDTDRTRPTNNDNEYASSANDGAEGSWKSQKKKRDKDDDDGELESGDPSSTSKKPRVVWSVELHQQFVNAVNHLGIDKAVPKKILELMNVPGLTRENVASHLQKFRLYLKRIAQHHAGIANPFCPPASSGKVGSLGGLDFQALAASGQIPPQALAALQDELLGRPTNSLVLPGRDQSSLRLAAVKGNKPHGEREIAFGQPIYKCQNNAYGAFPQSSPAVGGMPSFSAWPNNKLGMADSTGTLGGMSNSQNSNIVLHELQQQPDAMLSGTLHSLDVKPSGIVMPSQSLNTFSASEGLSPNQNTLMIPAQSSGFLAAMPPSMKHEPVLATSQPSSSLLGGIDLVNQASTSQPLISAHGGGNLSGLVNRNPNVVPSQGISTFHTPNNPYLVSPNSMGMGSKQPPGVLKTENSDALNHSYGYLGGSNPPMDSGLLSSQSKNTQFGLLGQDDITGSWSPLPNVDSYGNTVGLSHPGSSSSSFQSSNVALGKLPDQGRGKNHGFVGKGTCIPSRFAVDEIESPTNNLSHSIGSSGDIMSPDIFGFSGQM
In the case of B5, the binding result in the assay with OsRR5 (rice) [13] is listed as “binds”; with OsRR5 (rice) [14], “binds weakly”.
